Test results from patent publication US20180369166A1, “GARCINOL COMPOSITIONS FOR THERAPEUTIC MANAGEMENT OF ENDOPLASMIC RETICULUM STRESS” (priority 2017, published 2018).
At least one structure is not confirmed: it was looked up by name or label, or the drawing left a doubt.

Columns and labels:
[1] = tested on: Min6 pancreatic beta cells; assay: Protein aggregation in Min6 pancreatic beta cells under glucose induced toxicity (thioflavin, flow cytometry); assay type: cell-based, mouse; details: FIG. 2
[2] = tested on: Min6 mouse pancreatic beta cell line; assay: Protection against glucose induced toxicity in pancreatic beta cell line (SRB assay); assay type: cell-based; details: high glucose, effect comparable to Metformin (100 μM), FIG. 1
SXBP, GRP78 and ATF4 [3] = assay: Expression of ER stress markers in fat pads of high fat diet mice (RT-PCR); assay type: in vivo, C57/BL6 mice; details: FIG. 11b
[4] = Serum glucose in mice on high fat diet; assay type: in vivo, C57/BL6 mice; details: FIG. 3
liver cells = assay: Paracetamol induced liver toxicity, hepatoprotection (SRB assay); assay type: cell-based; details: 5 μg/ml and 10 μg/ml
[5] = tested on: ER stress markers sXBP 1 and GRP78; assay: Expression of ER stress markers in hepatocytes treated with thapsigargin (RT PCR); assay type: cell-based; details: 1 μM Thapsigargin, garcinol 5 and 10 μg/ml, FIG. 8
ER stress markers = assay: Expression of ER stress markers in pancreas of high fat diet mice (RT-PCR); assay type: in vivo, C57/BL6 mice; details: HFD fed animals; FIG. 4
[6] = Liver weight in high fat induced liver toxicity in mice; assay type: in vivo, C57/BL6 mice; details: FIG. 9
SXBP, GRP78 and ATF4 [7] = assay: Expression of ER stress markers in high fat induced liver toxicity in mice (RT-PCR); assay type: in vivo, C57/BL6 mice; details: FIG. 10
SXBP, GRP78 and ATF4 [8] = assay: Expression of ER stress markers in adipocytes treated with thapsigargin (RT-PCR); assay type: cell-based, mouse; details: garcinol 5 and 10 ug/ml, FIG. 11a

## C=C(C)[C@@H](CC=C(C)C)C[C@@]12C[C@@H](CC=C(C)C)C(C)(C)[C@@](CC=C(C)C)(C(=O)C(C(=O)c3ccc(O)c(O)c3)=C1O)C2=O [Garcinol]
[1]
  protein aggregation induced by high concentration of Glucose: reduced the protein aggregation
[2]
  toxicity induced by Hyperglycemia: reduced the toxicity induced by Hyperglycemia in a dose dependent manner
SXBP, GRP78 and ATF4 [3]
  expression of stress marker ATF4 in fat pads: significantly decreased the expression
  expression of stress marker GRP78 in fat pads: significantly decreased the expression
  expression of stress marker SXBP in fat pads: significantly decreased the expression
[4]
  serum glucose levels: reduced the serum glucose levels significantly
Liver cells; garcinol added after 24 hours of stress agent, FIG. 5b
  protection against paracetamol induced toxicity (therapeutic): protected liver cells against paracetamol induced toxicity
Liver cells; garcinol added along with stressor, FIG. 5a
  protection against paracetamol induced toxicity (prophylactic): protected liver cells against paracetamol induced toxicity
[5]
  expression of ER stress marker GRP78: reduced the expression
  expression of ER stress marker sXBP 1: reduced the expression
ER stress markers
  ER stress markers in pancreas: reduced the ER stress markers
[6]
  liver weight: reduced the liver weight significantly
SXBP, GRP78 and ATF4 [7]
  expression of marker of ER stress ATF4: significantly reduced
  expression of marker of ER stress GRP78: significantly reduced
  expression of marker of ER stress SXBP: significantly reduced
SXBP, GRP78 and ATF4 [8]
  expression of stress marker ATF4 in adipocytes: significantly decreased the expression
  expression of stress marker GRP78 in adipocytes: significantly decreased the expression
  expression of stress marker SXBP in adipocytes: significantly decreased the expression
